The target of the assay is N-terminal domain of E. coli FimH with 3′-FLAG-tag, displayed on the surface of Lactobacillus acidophilus GAD42 (plasmid pD003) (E. coli) (UniProt P08191). The assay can be described thus: SDS-PAGE and Western blot; homogenised rLA in reducing sample buffer, 4-20% SDS-PAGE, anti-FLAG-tag Western blot; monomer band at 44 kDa and an additional band. For orientation: Immunoblotting shows a protein as a band on a membrane.

Amino acid sequences for entries named in this document (tags omitted). Residues count along the entry.
UniProt P08191, residues 22-181: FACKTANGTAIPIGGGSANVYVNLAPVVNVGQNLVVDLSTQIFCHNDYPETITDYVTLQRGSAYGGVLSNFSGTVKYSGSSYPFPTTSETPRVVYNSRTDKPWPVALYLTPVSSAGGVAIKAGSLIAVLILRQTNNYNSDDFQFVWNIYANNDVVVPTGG

Results are given in words; binding and its absence hold for the method and conditions named. Some entries that bind do so weakly or less than the wild type.

For the substance “N-terminal domain of E. coli FimH with 3′-FLAG-tag, displayed on the surface of Lactobacillus acidophilus GAD42 (plasmid pD003) (from UniProt P08191 22-181) (domain or fragment)”, the binding entry is recorded as “binds”.

The record behind these values is PMC10384470.
